According to paper PMC12431657, “Discovery and mechanistic insights of dibenzoylmethane as a broad spectrum inhibitor of coronavirus” (PLOS Pathogens, 2025):
Where a name gives a salt, the structure may show the parent alone. Read-outs that look alike come from different tables or passages of the source. Screen size: about 3,300 compounds; about 95 (3%) showed an effect of 50% or more. Some of the results follow.

Tested on: HCoV-229E
Set-up: species or system Huh-7; HTS, protection from HCoV-229E induced cell death, luminescent cell viability (CellCounting-Lite 2.0), inhibition rate
Details: 24 h post infection, 1 h compound pre-incubation, 10 µM, inhibitor

Compound	229E Inhibition rate [%]	229E Inhibition rate (229E Inhibition rate, 24 h) [%]
COc1c(O[C@@H]2O[C@H](CO)[C@@H](O)[C@H](O)[C@H]2O)cc2oc(-c3ccc(O)cc3)cc(=O)c2c1O [Homoplantaginin]	0	
N#C/C=C1/C=C[C@@H](O)[C@H](O)[C@H]1O[C@@H]1O[C@H](CO)[C@@H](O)[C@H](O)[C@H]1O [Lithospermoside]	8	
Nc1nc2c(ncn2[C@@H]2O[C@H](COP(=O)(O)OP(=O)(O)OC3O[C@H](CO)[C@@H](O)[C@H](O)[C@@H]3O)[C@@H](O)[C@H]2O)c(=O)[nH]1 (stereo partly drawn) [GDP-D-mannose (disodium)]	10.7	
CCCCCCCCCCCCCCCCCCC(=O)O [Nonadecanoic acid]	0	
COc1cc2c(c(OC)c1OC)C(=O)c1c(cc(C)c(O)c1OC)C2=O [Chrysoobtusin]	21.3	
OC[C@H]1O[C@@H](n2cnc3c(O)nc(O)nc32)[C@H](O)[C@@H]1O [Xanthosine]	9.5	
C[C@H]1O[C@@H](O[C@@H]2CC[C@@]3(C)[C@@H](CC[C@]4(C)[C@@H]3C=C[C@]35OC[C@@]6(CCC(C)(C)C[C@H]63)[C@@H](O)C[C@]54C)[C@@]2(C)CO)[C@H](O)[C@@H](O)[C@H]1O (stereo in doubt) [Prosaikogenin G]	4.4	
CCCCCCCCCCCCCCCCCCCCCCCCC [Pentacosane]	17.1	
CC(=O)OCC(=O)[C@@]1(O)CC[C@H]2[C@@H]3CCC4=CC(=O)C=C[C@]4(C)[C@@]3(Cl)[C@@H](Cl)C[C@@]21C [Dichlorisone acetate]	17.4	
C=C1CC[C@@H]2[C@](C)(CO)[C@H](O)CC[C@@]2(C)[C@@H]1CCC1=CCOC1=O [Deoxyandrographolide]		12.8
O=C(O)CCCCCCCC(=O)O [Azelaic acid]	39.6	
COc1ccc(-c2cc(=O)c3c(O)c(OC)c(OC)cc3o2)cc1O [Eupatorin]	27.4	
O=C1Cc2cc(O)ccc2N1 [5-Hydroxyoxindole]	7.7	
CCCCCCCCCCCCCCCC(=O)OC/C=C(C)/C=C/C=C(C)/C=C/C1=C(C)CCCC1(C)C [Retinyl palmitate]	11.4	
CC(=O)OC/C=C/c1ccccc1 [Cinnamyl acetate]	30	
CN1c2ccccc2C(=O)N2CCc3c([nH]c4ccccc34)C21 (racemic) [(±)-Evodiamine]	18.7	
O=C[C@H](O)[C@@H](O)[C@H](O)[C@H](O)C(=O)O [D-Glucuronic acid]	57.5	
CCc1ccc(O)cc1 [4-Ethylphenol]	20.1	
CC(=O)OCC(=O)[C@@]1(O)CC[C@H]2[C@@H]3CCC4=CC(=O)CC[C@]4(C)[C@H]3[C@@H](O)C[C@@]21C [Hydrocortisone acetate]	20	

Compound	229E Inhibition rate [%]	229E Inhibition rate (229E Inhibition rate, 24 h) [%]
CC(=O)O[C@@H]1[C@@H](O)[C@H](O[C@H]2CC[C@]34C[C@]35CC[C@]3(C)[C@@H]([C@@]6(C)CC[C@@H](C(C)(C)O)O6)[C@@H](O)C[C@@]3(C)[C@@H]5C[C@H](O[C@@H]3O[C@H](CO)[C@@H](O)[C@H](O)[C@H]3O)[C@H]4C2(C)C)OC[C@H]1O [Isoastragaloside II]	45.1	
COC(=O)c1cc(OC)c(OC)c(OC)c1 [Methyl 3,4,5-trimethoxybenzoate]	6.6	
Cc1ccc2ccc(=O)oc2c1 [7-Methylcoumarin]	12.4	
COc1cc(C)c2c(=O)cc(C[C@@H](C)O)oc2c1[C@@H]1O[C@H](CO)[C@@H](O)[C@H](O)[C@H]1OC(=O)/C=C/c1ccc(O)cc1 [Aloeresin D]	14.9	
Nc1nc(N)nc(N)n1 [Melamine]	5.4	
CCCCCCCCCCCCCCCO [1-Pentadecanol]	11.4	
CC(C)CCCO [4-Methyl-1-pentanol]	20.1	
O=c1cc(-c2ccccc2)oc2c(O)c(O)ccc12 [7,8-Dihydroxyflavone]	38	
COc1ccc([C@@H]2CC(=O)c3c(O)cc(O)cc3O2)cc1O [Hesperetin]	11	
O=C1O[C@H]([C@H](O)CO)C(O)=C1O [Erythorbic acid]		11
C[C@@]12C[C@@]3(O)O[C@@H](O1)[C@]1(COC(=O)c4ccc(O)cc4)[C@H]3C[C@@]12O[C@@H]1O[C@H](COC(=O)c2ccccc2)[C@@H](O)[C@H](O)[C@H]1O [Benzoyloxypaeoniflorin]	6.6	
O=C(O)Cc1cccc(O)c1 [3-Hydroxyphenylacetic acid]	11	
N[C@@H](CCC[C@H](N)C(=O)O)C(=O)O [2,6-Diaminoheptanedioic acid]	16.6	
C=C1[C@H](OC(=O)/C=C(\C)CC)C[C@@H](C(C)C)[C@@H]2[C@@H]([C@@H](C)OC(C)=O)C(=O)C[C@@H]12 [Tussilagone]	14.3	
O=P(O)(O)O[C@H]1O[C@H](CO)[C@@H](O)[C@H](O)[C@H]1O [α-D-Glucose-1-phosphate (disodium hydrate)]	17.2	
O=C1C[C@@H](c2ccccc2)Oc2cc(O)cc(O)c21 [Pinocembrin]	31.1	
N[C@H]1[C@H](O[C@H]2[C@H](O)[C@@H](N)[C@H](O[C@H]3[C@H](O)[C@@H](N)[C@H](O[C@H]4[C@H](O)[C@@H](N)[C@H](O[C@@H]([C@H](O)[C@@H](N)C=O)[C@H](O)CO)O[C@@H]4CO)O[C@@H]3CO)O[C@@H]2CO)O[C@H](CO)[C@@H](O)[C@@H]1O [Chitopentaose (pentahydrochloride)]	15.4	
C=C1C(=O)O[C@H]2C[C@@H](C)[C@@H]3C=CC(=O)[C@@]3(C)[C@@H](OC(C)=O)[C@H]12 [Bigelovin]	4.5	
C[C@H]1[C@H]2[C@H](O[C@@H]3O[C@H](CO)[C@@H](O)[C@H](O)[C@H]3O)OC=C(C(=O)O)[C@H]2C[C@@H]1O [8-Epiloganic acid]	16.3	

Shown field by field: part of the list above.
CC(=O)OCC(=O)[C@@]1(O)CC[C@H]2[C@@H]3CCC4=CC(=O)C=C[C@]4(C)[C@@]3(Cl)[C@@H](Cl)C[C@@]21C [Dichlorisone acetate]
  229E Inhibition rate [%]: 17.4
C=C1[C@H](OC(=O)/C=C(\C)CC)C[C@@H](C(C)C)[C@@H]2[C@@H]([C@@H](C)OC(C)=O)C(=O)C[C@@H]12 [Tussilagone]
  229E Inhibition rate [%]: 14.3
O=P(O)(O)O[C@H]1O[C@H](CO)[C@@H](O)[C@H](O)[C@H]1O [α-D-Glucose-1-phosphate (disodium hydrate)]
  229E Inhibition rate [%]: 17.2
